Test results from PubChem BioAssay AID651550 (National Center for Advancing Translational Sciences (NCATS), 2012).
Screen size: about 360,000 compounds; about 1,100 (0.31%) were called active. The inconclusive results got no clear call from the source; some entries with a clear call stand among them for comparison. Cut-off read from the data, not from the text of the source: active = activity change below about -80%; inconclusive = mostly about -51% to -80%; inactive = weaker than that.

Target: RAC-alpha serine/threonine-protein kinase (Homo sapiens) (UniProt P31749)
Experiment: HTS Assay for Inhibitors of Akt Phophorylation: Primary Screen
Conditions: Neuro2A IGF-stimulated pAkt S473 HTRF, 20 min; at 50 µM, active compounds read low
Outline: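 Neuro2A cells (4,500/well, DMEM with 0.5% FBS) were treated with compound at a single 50 µM final concentration, stimulated with 6 nM IGF for 20 min at 37 °C, and lysed. Phospho-Akt Ser473 was read by HTRF as 665/615 ratio ×10^4.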
% is set by controls: 0 for no effect and ±100 for the full control effect.

Row | SMILES | activity change
1 | COc1ccc(-c2cn(-c3ccccc3)nc2CO)cc1 | inactive
2 | CCOc1ccccc1-n1c(SCC(=O)Nc2ccc(CC)cc2)nc2n[nH]c(C)c2c1=N | inconclusive: -53.3%
3 | C=CCOc1ccccc1CNCc1cccnc1 | inconclusive: -74.4%
4 | Cc1ccc2cc(C#N)c(SCC(=O)NCC3CCCO3)nc2c1 (configuration not stated) | inconclusive: -74.4%
5 | CC(OC(=O)CN(C)S(=O)(=O)c1ccc(Cl)cc1)C(=O)Nc1cccc(Cl)c1 (configuration not stated) | active: -98.5%
6 | COc1ccc(OCC(=O)Nc2ccccc2OC)cc1 | inconclusive: -76%
7 | COc1cccc(-n2nc3c(-n4ncc(C#N)c4N)nnc(C)c3c2C)c1 | active: -123%
8 | CCOC(=O)C1CCN(C(=O)CCS(=O)(=O)c2ccc3c(c2)CC(C)N3C(=O)CC)CC1 (configuration not stated) | inactive
9 | N#Cc1c(N)nc(SCC(=O)NCc2ccc3c(c2)OCO3)c(C#N)c1-c1cccs1 | inconclusive: -54.1%
10 | COc1cc(OC)cc(-n2nnnc2SCC(=O)Nc2ccc(C(C)=O)cc2)c1 | inconclusive: -63.2%
11 | CCc1cc(Br)ccc1NC(=O)C1CCCO1 (configuration not stated) | inconclusive: -79%
12 | Cc1ccc(-c2nc(SCC(=O)N(C)C3CCS(=O)(=O)C3)[nH]c2-c2ccc(C)cc2)cc1 (configuration not stated) | inconclusive: -66.4%
13 | O=C(Nc1c(Cl)cc(Cl)cc1C(=O)NCc1cccnc1)c1ccc(Cl)cc1Cl | inconclusive: -55%
14 | CCOc1ccc2[nH]c(=O)c(C(c3nnnn3Cc3ccco3)N3CCN(C)CC3)cc2c1 (configuration not stated) | inactive
15 | COc1ccccc1-n1c(N)c(C(=O)NCC2CCCO2)c2nc3ccccc3nc21 (configuration not stated) | inactive: -22.1%
16 | NC(=O)c1cn(-c2ccccc2)nc1-c1cccnc1 | inconclusive: -52.7%
17 | CCOc1cc(C2NC(=O)NC(C)=C2C(=O)NCc2ccccc2)c(Cl)cc1O (configuration not stated) | inconclusive: -65.6%
18 | O=C(Nc1nccs1)c1cccc(N2C(=O)c3cccc4c([N+](=O)[O-])ccc(c34)C2=O)c1 | active: -109%
19 | O=C(NCCCN1CCOCC1)C(=O)NCC1OCCN1S(=O)(=O)c1ccc(Br)cc1 (configuration not stated) | inactive
20 | CCOc1c(C)cnc2c1c(=O)n(CC(=O)NCC1CCCO1)c(=O)n2C (configuration not stated) | inactive
21 | COc1ccc(OCCN(C)Cc2c(O)ccc3ccccc23)cc1 | inactive
22 | COc1ccccc1OCc1ccc(C(=O)N2CCN3CCCC3C2)cc1 (configuration not stated) | active: -105%
23 | O=C(Nc1cccnc1)c1cc(-c2ccc3c(c2)OCO3)on1 | inconclusive: -57.5%

Quoted from above: compounds 10–16
Row | SMILES | activity change
10 | COc1cc(OC)cc(-n2nnnc2SCC(=O)Nc2ccc(C(C)=O)cc2)c1 | inconclusive: -63.2%
11 | CCc1cc(Br)ccc1NC(=O)C1CCCO1 (configuration not stated) | inconclusive: -79%
12 | Cc1ccc(-c2nc(SCC(=O)N(C)C3CCS(=O)(=O)C3)[nH]c2-c2ccc(C)cc2)cc1 (configuration not stated) | inconclusive: -66.4%
13 | O=C(Nc1c(Cl)cc(Cl)cc1C(=O)NCc1cccnc1)c1ccc(Cl)cc1Cl | inconclusive: -55%
14 | CCOc1ccc2[nH]c(=O)c(C(c3nnnn3Cc3ccco3)N3CCN(C)CC3)cc2c1 (configuration not stated) | inactive
15 | COc1ccccc1-n1c(N)c(C(=O)NCC2CCCO2)c2nc3ccccc3nc21 (configuration not stated) | inactive: -22.1%
16 | NC(=O)c1cn(-c2ccccc2)nc1-c1cccnc1 | inconclusive: -52.7%

Next part

Row | SMILES | activity change
24 | N#Cc1c(N)nc(SCC(=O)NCCc2ccccc2)c(C#N)c1-c1cccs1 | active: -89.4%
25 | CC(C)(C)N/N=C/c1cc(Cl)cc([N+](=O)[O-])c1O | inactive
26 | COC(=O)c1cc(Br)c(=O)n(-c2nccs2)c1 | inconclusive: -67.9%
27 | O=C(CSc1nnc(-c2cccs2)n1-c1ccccc1)c1ccc2c(c1)OCCO2 | inconclusive: -59.5%
28 | O=C(CSc1nc2ccccc2c(=O)[nH]1)NCc1ccc(Cl)cc1 | inconclusive: -77.9%
29 | O=c1c2c3c(sc2nc2sc(C4CC4)nn12)CCCC3 | inconclusive: -66.6%
30 | CC(C)(C)NC(=O)C(c1ccco1)N(Cc1ccc2c(c1)OCO2)C(=O)Cn1nnc2ccccc21 (configuration not stated) | inconclusive: -77.4%
31 | CCS(=O)(=O)Nc1ccc(Cc2ccc(NS(=O)(=O)CC)cc2)cc1 | inconclusive: -73.4%
32 | CC(=O)Nc1cccc(NC(=O)CSc2nnc(Cc3cccn3C)n2CCc2ccccc2)c1 | inconclusive: -63.6%
33 | C=CCOc1c(Cl)cc(CNCCC)cc1Cl | active: -91.4%
34 | COCc1cccc(C2=CC(=O)C[C@H](c3ccc(OC)cc3)C2)c1 | inactive
35 | Cc1ccc(OCCn2cnc3c(N)ncnc32)cc1 | inconclusive: -53.6%
36 | COc1ccc(-c2nc3cc(NC(=O)c4ccc5c(c4)OCO5)ccc3o2)cc1 | inconclusive: -51.6%
37 | O=C(NNC(=O)c1ccc2nonc2c1)Nc1ccc(Cl)cc1 | inactive
38 | CCc1ccc(CN(C(=O)c2cc3ccccc3oc2=O)C2CCS(=O)(=O)C2)cc1 (configuration not stated) | inconclusive: -70.5%
39 | CSc1nc(C)c2c(n1)N(c1ccc(C(F)(F)F)cc1)CC2 | inconclusive: -66.9%
40 | Cc1nn(-c2nc(-c3ccco3)cc(C(F)(F)F)n2)c(C)c1Cl | active: -116%
41 | COc1cc(-c2cc(-c3ccccc3)nc(SCC(=O)Nc3nccs3)c2C#N)cc(OC)c1OC | inconclusive: -58%
42 | Clc1cccc(Nc2c3c(nc4ncnn24)CCC3)c1 | inconclusive: -67.3%
43 | c1ccc2sc(NC3=NCN(CCN4CCOCC4)CN3)nc2c1 | inactive
44 | CC(C)c1ccc(NC(=O)COc2ccccn2)cc1 | inactive
45 | O=C(NCc1ccccn1)c1ccc(CS(=O)(=O)Cc2ccc(Cl)cc2)o1 | active: -126%
46 | N#Cc1ccc(NC(=O)c2sc3cc(C(F)(F)F)cnc3c2-c2cccs2)cc1 | inconclusive: -52%

Row | SMILES | activity change
47 | CCn1c(SCC(=O)Nc2cc(NC(C)=O)ccc2OC)nnc1-c1cccnc1 | inconclusive: -63.9%
48 | O=C(Nc1cccc(OCC(=O)N2CCOCC2)c1)C1CCCCC1 | inconclusive: -76.1%
49 | C/C=C(\C)CN1CCN(c2ccccc2F)CC1 | inconclusive: -65.1%
50 | O=c1[nH]nc(Cc2ccc(-c3ccccc3Cl)o2)c2ccccc12 | inconclusive: -63.9%
51 | CN(C)S(=O)(=O)c1ccc(Cl)c(C(=O)NC2CCN(Cc3ccccc3)C2)c1 (configuration not stated) | inactive
52 | Cc1cccc(-c2nsc(SCC(=O)Nc3nccs3)n2)c1 | inconclusive: -61.8%
53 | COc1cccc(OCc2nc3c4cnn(-c5ccccc5)c4ncn3n2)c1 | inconclusive: -64.2%
54 | Cc1nc([N+](=O)[O-])cn1CC(=O)c1ccc(Br)cc1 | inactive
55 | O=[N+]([O-])c1ccc(N2CCCC2)cc1N1CCCC1 | inactive: -8.88%
56 | COc1nc2c(C)cccc2cc1-c1noc(-c2ccco2)n1 | inconclusive: -59.7%
57 | CSc1nc(N)c2c3c(sc2n1)COC(C(C)C)C3 (configuration not stated) | inconclusive: -61.6%
58 | C=CCn1c(=O)c2ccccc2n2c(SCC(=O)/C(C#N)=C(\C)N)nnc12 | inconclusive: -52.8%
59 | COc1cc2c(cc1NC(=O)CSc1nccn1C)oc1ccccc12 | inactive
60 | COc1ccc(-n2ccnc2SCC(=O)Nc2ccccc2)cc1 | inactive
61 | Nn1c(SCC(=O)N2CCOCC2)nnc1-c1ccccc1Cl | inconclusive: -53.9%
62 | COc1cc(/C=N/NC(=O)Cn2cnc3ccccc3c2=O)ccc1O | inactive
63 | CCOc1ccc(-c2cc(C(=O)N3CCN(c4ccccn4)CC3)c3ccccc3n2)cc1 | inactive: -4.35%
64 | Cc1ccc(-c2nc(=S)c3c(n2CC2CCCO2)CC(C)(C)OC3)cc1 (configuration not stated) | inconclusive: -59.3%
65 | Cn1c(=O)[nH]c(=O)c2c1nc(Br)n2CCCCSc1nc2ccccc2o1 | inconclusive: -70.5%
66 | COc1nc(OC)nc(N(C)CCO)n1 | active: -113%
67 | CC(=O)c1cn(CC(=O)Nc2ccc(C)cc2)c2ccccc12 | inconclusive: -70.2%
68 | O=C(CN1CCSCC1)N/N=C/c1ccccc1F | active: -98.1%
69 | C=CCSC1=C(C#N)C(c2ccccc2Cl)CC(=O)N1 (configuration not stated) | inconclusive: -57.7%

Row | SMILES | activity change
70 | N#Cc1cnn2c1nc(N1CCCCC1)c1ccccc12 | inconclusive: -60.2%
71 | COc1ccc(C(=O)Nc2cccc3c2C(=O)NC3=O)cc1S(=O)(=O)N1CCOCC1 | inconclusive: -76.8%
72 | CCOC(=O)c1sc(NC(=O)CSc2nnnn2-c2ccccc2)c(C(=O)OCC)c1C | inconclusive: -66.8%
73 | CC(C)(C)C(=O)OCc1cn(-c2ccccc2)nn1 | inconclusive: -61.2%
74 | Cc1cccc[n+]1C1C(c2ccccc2)C(C#N)=C(C(=C=[N-])C#N)NC1(O)C1CC1 (configuration not stated) | inconclusive: -73.1%
75 | Cc1ccc(SCCCn2cncn2)cc1 | active: -111%
76 | CC1=CCC2C(=O)N(C(C)c3ccccc3)C(=O)C2C1 (configuration not stated) | inconclusive: -74.3%
77 | CCC(C(=O)NC1CCCC1)N(C(=O)c1snc(C(N)=O)c1N)c1ccc2c(c1)OCCO2 (configuration not stated) | inconclusive: -71.6%
78 | O=C(Nc1ccc2oc(-c3ccc(F)cc3)nc2c1)c1ccccc1F | inconclusive: -62.8%
79 | N/C(=N\OC(=O)c1ccccc1Cl)c1cccnc1 | inactive: 1%
80 | O=C(NCCc1ccccc1)c1ccc(-c2ccc(F)cc2)o1 | inactive
81 | C[C@H](CO)N1C[C@H](C)[C@@H](CN(C)C(=O)Nc2ccc3c(c2)OCO3)Oc2c(NC(=O)Nc3ccc(C(F)(F)F)cc3)cccc2C1=O | inactive
82 | Cc1ccc(C(=O)CSc2nnc(-c3ccco3)n2Cc2ccccc2)cc1 | active: -109%
83 | O=C(c1cccc(-n2cnnn2)c1)N1CC=C(c2ccccc2)CC1 | inconclusive: -57.3%
84 | Cc1ccccc1OCCn1cnc2c(N)ncnc21 | inconclusive: -57.1%
85 | Cc1sc2nc(SCC(=O)NCc3ccco3)n(Cc3ccccc3)c(=O)c2c1C | inconclusive: -73.6%
86 | COc1ccc(CC(=O)Nc2ccc(-c3nc4cc(C)ccc4o3)c(O)c2)cc1OC | inconclusive: -70.5%
87 | CCN(CC)S(=O)(=O)c1cccc(-c2nnc(SCc3nnc(-c4ccccc4)o3)n2C)c1 | active: -98.7%
88 | COc1ccc(CNC(=O)c2ccc(NC(=O)C3CCCO3)cc2)cc1 (configuration not stated) | active: -105%
89 | O=C(OCc1cc(=O)n2c(n1)sc1ccccc12)c1ccc2c(=O)n3c(nc2c1)CCC3 | inconclusive: -51.1%
90 | O=S1(=O)N=C(N/N=C/c2ccccn2)c2ccccc21 | inactive
91 | O=C(c1ccccc1)c1c[nH]c(C(=O)NCc2cccnc2)c1 | active: -100%
92 | Cc1cc(C)nc(N2CCC(C(=O)NC3CCCc4ccccc43)CC2)n1 (configuration not stated) | inconclusive: -79.5%
